Assay results taken from EP0131252B1, “Thymosin alpha 11” (F. HOFFMANN-LA ROCHE AG, priority 1983, dated 1989).
At least one peptide structure holds a part that was inferred or is arguable (an end, a ring closure or a residue). Where a SMILES comes first, the peptide text is derived from it.

Columns and labels:
[1] = tested on: T cell differentiation and function; details: in vitro and in vivo; cited from earlier work
Candida albicans = test: Protection of mice against infection with Candida albicans (daily i.p. treatment, intravenous challenge); assay type: in vivo
Source text: The biological activity of thymosin a1 can be determined by utilizing in vivo assays known in the art. Thus, for example, inbred strains of mice are known to vary in their susceptibility to infection with C. albicans. Thus, mice of such strains as C3 H/HeJ or CBA/CaJ are highly susceptible to infection, whereas mice of such strains as C57 BI/10SNJ or C57BI/KsJ were highly resistant to challenge. Since resistance to infection with C. albicans is associated with cell-mediated processes, and therefore with T-lymphocytes, thymic hormones should have an effect on the host response.
Thymosin fraction 5, thymosin a1 or α11 was injected daily i.p. in graded doses into three different groups of mice, beginning two days before intravenous challenge with 4x10^4 cells of Candida albicans.
Mice were treated daily with the indicated doses of thymosin fraction 5, thymosin a1 or thymosin α11 and challenged with 4x 10^4 cells of C. a/bicans two days after the start of treatment
^* Three mice from each set were sacrificed on days 7,14 and 21 after infection and the values represent
the average number of organisms in the left kidneys of the nine mice in each set.

## CC[C@H](C)[C@H](NC(=O)[C@H](CCC(=O)O)NC(=O)[C@H](CO)NC(=O)[C@H](CO)NC(=O)[C@@H](NC(=O)[C@H](CC(=O)O)NC(=O)[C@@H](NC(=O)[C@H](C)NC(=O)[C@H](C)NC(=O)[C@H](CC(=O)O)NC(=O)[C@H](CO)NC(C)=O)C(C)C)[C@@H](C)O)C(=O)N[C@H](C(=O)N[C@H](C(=O)N[C@@H](CCCCN)C(=O)N[C@@H](CC(=O)O)C(=O)N[C@@H](CC(C)C)C(=O)N[C@@H](CCCCN)C(=O)N[C@@H](CCC(=O)O)C(=O)N[C@@H](CCCCN)C(=O)N[C@@H](CCCCN)C(=O)N[C@@H](CCC(=O)O)C(=O)N[C@H](C(=O)N[C@H](C(=O)N[C@@H](CCC(=O)O)C(=O)N[C@@H](CCC(=O)O)C(=O)N[C@@H](C)C(=O)N[C@@H](CCC(=O)O)C(=O)N[C@@H](CC(N)=O)C(=O)O)C(C)C)C(C)C)[C@@H](C)O)[C@@H](C)O [thymosin a1] (Ac-SDAAVDTSSEITTKDLKEKKEVVEEAEN-OH)
[1]
  activity compared with fraction 5: one or more orders of magnitude more active than fraction 5
Candida albicans; compared on optimum daily doses
  potency relative to fraction 5 in ability to induce resistance to infection with C. albicans: about 30 times
Candida albicans; i.p., daily, resistance to infection with C. albicans
  daily doses at which most active: 160-320 ng per mouse
Candida albicans; injected daily i.p. in graded doses, beginning two days before intravenous challenge with 4x10^4 cells of Candida albicans
  protection in comparison with control mice: provided protection
Candida albicans; resistance to infection with C. albicans
  potency of thymosin a1 and thymosin α11 relative to each other: approximately equal in potency
